Measurements reported in PubChem BioAssay AID1159578 (Peter MacCallum Cancer Centre, 2015).
In all, the deposit lists about 18,000 reagents; this is an unselected part. About 1,030 of all reagents (5.7%) were called active. 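Inactive calls also include pools with fewer than 3300 nuclei, whose migration was not assessed.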 Raw values vary from plate to plate and are shown uncorrected. Not all columns of the deposit are shown. No sequences are given here.

Screen: 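Knock-downs that alter how fast lymphatic endothelial cells migrate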 (primary screen)
Cell system: human lymphatic endothelial cells
Reagent: siRNA pool against human genes, 40 nM
Time to read-out: 48 h after transfection
Measured: 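High-content imaging of dye-stained cells in a scratch assay measures filled wound area and nuclei per well; duplicate means given as ratio to mock and robust z-score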
Reading the numbers: migration robust z-score: higher = faster migration into the scratch; nuclei per well: higher = more cells in the well
Rule for the call: 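Pools averaging fewer than 3300 nuclei are never called; remaining pools count as changed when migration robust z lies outside -2 to 2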
Calls: active = migration changed; inactive = no migration change, or too few cells

With KLHL25, what does the deposit list?
migration robust z-score: -2.31; migration class with cell-count check: migration z below -2; enough cells; nuclei per well, duplicate mean: 6876; Call: active

With DENND10, what was measured?
migration robust z-score: 0.43; migration class with cell-count check: migration z between -2 and 2; enough cells; nuclei per well, duplicate mean: 5870; Call: inactive

With HOXC12, what does the deposit list?
migration robust z-score: -0.38; migration class with cell-count check: migration z between -2 and 2; enough cells; nuclei per well, duplicate mean: 4363; Call: inactive

Which result is listed for ASGR2?
migration robust z-score: -1.01; migration class with cell-count check: migration z between -2 and 2; enough cells; nuclei per well, duplicate mean: 5458; Call: inactive

Which result is listed for NINJ1?
migration robust z-score: -1.75; migration class with cell-count check: migration z between -2 and 2; enough cells; nuclei per well, duplicate mean: 6228; Call: inactive

What is on record for LAS1L?
migration robust z-score: -0.48; migration class with cell-count check: migration z between -2 and 2; enough cells; nuclei per well, duplicate mean: 5320; Call: inactive

Which result is listed for BRD1?
migration robust z-score: -0.86; migration class with cell-count check: migration z between -2 and 2; enough cells; nuclei per well, duplicate mean: 6139; Call: inactive

Which result is listed for DRC8?
migration robust z-score: -1.97; migration class with cell-count check: migration z between -2 and 2; enough cells; nuclei per well, duplicate mean: 5752; Call: inactive

For B3GALNT1, what does the deposit list?
migration robust z-score: 1.35; migration class with cell-count check: migration z between -2 and 2; enough cells; nuclei per well, duplicate mean: 4164; Call: inactive

With PPP1R8, how do the results read?
migration robust z-score: -0.57; migration class with cell-count check: migration z between -2 and 2; enough cells; nuclei per well, duplicate mean: 4606; Call: inactive

Which result is listed for DEFB108B?
migration robust z-score: 1.34; migration class with cell-count check: migration z between -2 and 2; enough cells; nuclei per well, duplicate mean: 5880; Call: inactive

With SKIDA1, how do the results read?
migration robust z-score: 1.11; migration class with cell-count check: migration z between -2 and 2; enough cells; nuclei per well, duplicate mean: 5520; Call: inactive

Looked up above.
For “migration class with cell-count check”, DEFB108B shows migration z between -2 and 2; enough cells
For “migration robust z-score”, PPP1R8 shows -0.57
